# Data as given in PubChem BioAssay AID1259254 (NCATS, 2017).
# Test: 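Finding genes that stop cells copying their DNA twice in one cycle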 (primary screen)
# Cells: human HCT116 colorectal cancer cells
# Reagents: single siRNA against human genes
# Time to read-out: 3 days
# Detection: 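Nuclei stained with Hoechst and imaged; cell-cycle phase assigned by DNA content; G2 share scaled per plate, non-targeting siRNA 0%, GMNN siRNA 100%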
# Direction: G2 robust z-score and G2 cells, % of GMNN control: higher = more G2 cells, more excess DNA replication; raw share of cells in G2: higher = larger share of cells with G2 DNA content
# Active means: 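Active siRNAs have a G2 robust z of 5 or more median absolute deviations over the median, which in these data means about 38% or higher of GMNN control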
# Here is an unselected part of about 59,000 reagents. Over the whole deposit, about 1,550 (2.6%) were called active. 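G2 share is only a proxy for re-replication; each gene was hit by three separate siRNAs, and active genes were retested.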 The raw values are shown without normalisation. The numbers tell different reagents against one gene apart. Not given: the amount of reagent.
The first 3 records as a preview:
Target gene,reagent no.,G2 robust z-score,"G2 cells, % of GMNN control",raw share of cells in G2 (%),activity call
PYGO1 (GeneID 26108),1,0.807,8.64,5.84,inactive
PYGO1 (GeneID 26108),2,0.0418,3.26,7.38,inactive
PYGO1 (GeneID 26108),3,-0.576,-1.08,3.29,inactive

The listing, from the start:
Target gene,reagent no.,G2 robust z-score,"G2 cells, % of GMNN control",raw share of cells in G2 (%),activity call
PYGO1 (GeneID 26108),1,0.807,8.64,5.84,inactive
PYGO1 (GeneID 26108),2,0.0418,3.26,7.38,inactive
PYGO1 (GeneID 26108),3,-0.576,-1.08,3.29,inactive
ARL6IP1P2 (GeneID 646348),1,0.564,6.94,6.39,inactive
ARL6IP1P2 (GeneID 646348),2,-0.728,-2.15,2.43,inactive
ARL6IP1P2 (GeneID 646348),3,-0.328,0.659,3.25,inactive
TBX5 (GeneID 6910),1,-0.141,1.97,5.43,inactive
TBX5 (GeneID 6910),2,0.329,5.29,5.9,inactive
TBX5 (GeneID 6910),3,0.158,4.08,6.38,inactive
GDPD4 (GeneID 220032),1,0.00441,3,5.96,inactive
GDPD4 (GeneID 220032),2,0.189,4.3,8.01,inactive
GDPD4 (GeneID 220032),3,0.672,7.69,7.52,inactive
STK10 (GeneID 6793),1,-0.0113,2.89,6.56,inactive
STK10 (GeneID 6793),2,-1.56,-7.98,2.72,inactive
STK10 (GeneID 6793),3,-0.738,-2.23,3.24,inactive
CICP26 (GeneID 648262),1,-0.83,-2.87,2.13,inactive
CICP26 (GeneID 648262),2,-0.0145,2.87,4.86,inactive
CICP26 (GeneID 648262),3,1.57,14,8.42,inactive
BMI1 (GeneID 648),1,-0.854,-3.04,2.25,inactive
BMI1 (GeneID 648),2,2.5,20.5,14.5,inactive
BMI1 (GeneID 648),3,-0.48,-0.41,2.96,inactive
C20orf144 (GeneID 128864),1,-0.337,0.599,3.29,inactive
C20orf144 (GeneID 128864),2,-0.426,-0.0267,2.57,inactive
C20orf144 (GeneID 128864),3,1.61,14.3,9.57,inactive
RPS5 (GeneID 6193),1,3.67,28.8,17.2,inactive
RPS5 (GeneID 6193),2,0.524,6.66,6.85,inactive
RPS5 (GeneID 6193),3,6.31,47.3,20.5,active
TULP2 (GeneID 7288),1,0.27,4.86,7.29,inactive
TULP2 (GeneID 7288),2,0.0724,3.48,5.27,inactive
TULP2 (GeneID 7288),3,-0.417,0.0318,3.36,inactive
BRWD3 (GeneID 254065),1,0.253,4.75,5.3,inactive
BRWD3 (GeneID 254065),2,-0.718,-2.08,2.42,inactive
BRWD3 (GeneID 254065),3,0.387,5.69,5.01,inactive
KLHL40 (GeneID 131377),1,3.55,28,14.7,inactive
KLHL40 (GeneID 131377),2,0.0367,3.23,4.13,inactive
KLHL40 (GeneID 131377),3,1.22,11.5,6.76,inactive
HOXC8 (GeneID 3224),1,-0.915,-3.47,4.36,inactive
HOXC8 (GeneID 3224),2,-0.806,-2.71,3.21,inactive
HOXC8 (GeneID 3224),3,0.47,6.27,7.32,inactive
KLHL25 (GeneID 64410),1,-0.426,-0.029,4.21,inactive
KLHL25 (GeneID 64410),2,1.53,13.7,9.2,inactive
KLHL25 (GeneID 64410),3,4.62,35.4,20.3,inactive
GDPD3 (GeneID 79153),1,4.9,37.5,17.6,inactive
GDPD3 (GeneID 79153),2,-0.135,2.02,4.96,inactive
GDPD3 (GeneID 79153),3,4.57,35.1,20.2,inactive
KPNA5 (GeneID 3841),1,0.755,8.28,8.05,inactive
KPNA5 (GeneID 3841),2,3.55,28,16.3,inactive
KPNA5 (GeneID 3841),3,1.66,14.7,9.58,inactive
FRMD8 (GeneID 83786),1,1.16,11.1,5.78,inactive
FRMD8 (GeneID 83786),2,-0.0765,2.43,4.92,inactive
FRMD8 (GeneID 83786),3,-0.521,-0.7,3.25,inactive
VSTM2L (GeneID 128434),1,1.09,10.6,6.48,inactive
VSTM2L (GeneID 128434),2,-0.184,1.67,3.19,inactive
VSTM2L (GeneID 128434),3,1.44,13.1,9.12,inactive
NKX3-1 (GeneID 4824),1,-0.446,-0.173,4.9,inactive
NKX3-1 (GeneID 4824),2,-0.845,-2.98,3.05,inactive
NKX3-1 (GeneID 4824),3,-0.851,-3.02,2.26,inactive
GTF3C3 (GeneID 9330),1,-0.78,-2.52,2.69,inactive
GTF3C3 (GeneID 9330),2,2.36,19.6,14.7,inactive
GTF3C3 (GeneID 9330),3,-0.884,-3.25,1.98,inactive
PLGRKT (GeneID 55848),1,-0.708,-2.01,2.5,inactive
PLGRKT (GeneID 55848),2,-0.707,-2,3.75,inactive
PLGRKT (GeneID 55848),3,1.14,11,8.68,inactive
PLCD4 (GeneID 84812),1,-0.75,-2.31,3.93,inactive
PLCD4 (GeneID 84812),2,-0.857,-3.06,4.16,inactive
PLCD4 (GeneID 84812),3,1.78,15.5,9.79,inactive
PCYOX1 (GeneID 51449),1,2.86,23.1,11.9,inactive
PCYOX1 (GeneID 51449),2,1,10,8.48,inactive
PCYOX1 (GeneID 51449),3,-0.00821,2.91,4.15,inactive
